# Values from PubChem BioAssay AID1259254 (NCATS, 2017)
# Purpose: 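Finding genes that stop cells copying their DNA twice in one cycle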 (primary screen)
# Cells: human HCT116 colorectal cancer cells
# Reagent: single siRNA against human genes
# Time to read-out: 3 days
# Measured: 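Nuclei stained with Hoechst and imaged; cell-cycle phase assigned by DNA content; G2 share scaled per plate, non-targeting siRNA 0%, GMNN siRNA 100%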
# Reading the numbers: G2 robust z-score and G2 cells, % of GMNN control: higher = more G2 cells, more excess DNA replication; raw share of cells in G2: higher = larger share of cells with G2 DNA content
# Call rule: 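An siRNA counts as active if its G2 robust z-score lies at least 5 MADs above the screen median; here such calls match roughly 38% of GMNN control or more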
# Shown is an unselected part of about 59,000 reagents tested. Of all reagents, about 1,550 (2.6%) are marked active. 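G2 share is only a proxy for re-replication; each gene was hit by three separate siRNAs, and active genes were retested.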 The raw values are shown without normalisation. The numbers tell different reagents against one gene apart. Not given: the amount of reagent.
The first 3 entries, to show the layout:
G2 robust z-score,"G2 cells, % of GMNN control",raw share of cells in G2 (%),outcome,gene symbol,reagent
0.684,7.78,6.53,inactive,GRIP1 (GeneID 23426),1
1.65,14.5,9.02,inactive,GRIP1 (GeneID 23426),2
7.79,57.8,29.6,active,GRIP1 (GeneID 23426),3

Main list, repeating the preview:
G2 robust z-score,"G2 cells, % of GMNN control",raw share of cells in G2 (%),outcome,gene symbol,reagent
0.684,7.78,6.53,inactive,GRIP1 (GeneID 23426),1
1.65,14.5,9.02,inactive,GRIP1 (GeneID 23426),2
7.79,57.8,29.6,active,GRIP1 (GeneID 23426),3
1.25,11.7,8.12,inactive,NAB1 (GeneID 4664),1
2.44,20.1,14.3,inactive,NAB1 (GeneID 4664),2
-0.135,2.02,3.84,inactive,NAB1 (GeneID 4664),3
0.705,7.93,7.15,inactive,ISL2 (GeneID 64843),1
0.203,4.4,7.47,inactive,ISL2 (GeneID 64843),2
1.08,10.6,8.06,inactive,ISL2 (GeneID 64843),3
2.17,18.2,10.9,inactive,GRPEL1P1 (GeneID 729126),1
0.685,7.79,5.83,inactive,GRPEL1P1 (GeneID 729126),2
-0.5,-0.551,2.89,inactive,GRPEL1P1 (GeneID 729126),3
1.3,12.1,9.21,inactive,MIDEAS (GeneID 91748),1
-0.642,-1.55,2.52,inactive,MIDEAS (GeneID 91748),2
1.64,14.5,7.53,inactive,MIDEAS (GeneID 91748),3
-0.61,-1.32,4,inactive,FUNDC2 (GeneID 65991),1
1.05,10.4,9.25,inactive,FUNDC2 (GeneID 65991),2
2.02,17.2,7.24,inactive,FUNDC2 (GeneID 65991),3
0.0499,3.32,4.78,inactive,CABCOCO1 (GeneID 219621),1
-0.422,-0.00356,3.13,inactive,CABCOCO1 (GeneID 219621),2
-0.379,0.299,3.29,inactive,CABCOCO1 (GeneID 219621),3
1.29,12.1,8.19,inactive,ANKRD20A18P (GeneID 391269),1
0.175,4.2,5.18,inactive,ANKRD20A18P (GeneID 391269),2
0.21,4.44,6.63,inactive,ANKRD20A18P (GeneID 391269),3
0.179,4.22,7,inactive,TNP1 (GeneID 7141),1
-0.103,2.24,4.78,inactive,TNP1 (GeneID 7141),2
0.815,8.7,6.43,inactive,TNP1 (GeneID 7141),3
1.7,14.9,11.6,inactive,CYB5B (GeneID 80777),1
-0.658,-1.66,3.59,inactive,CYB5B (GeneID 80777),2
-0.679,-1.81,4.12,inactive,CYB5B (GeneID 80777),3
-0.753,-2.33,3.19,inactive,SLC6A3 (GeneID 6531),1
4.55,35,17.5,inactive,SLC6A3 (GeneID 6531),2
-0.44,-0.127,4.5,inactive,SLC6A3 (GeneID 6531),3
-0.134,2.02,3.54,inactive,IFITM3P2 (GeneID 144383),1
2.65,21.6,10.6,inactive,IFITM3P2 (GeneID 144383),2
1.31,12.1,7.9,inactive,IFITM3P2 (GeneID 144383),3
0.00815,3.02,5.93,inactive,IGFL3 (GeneID 388555),1
2.38,19.7,10.5,inactive,IGFL3 (GeneID 388555),2
-0.774,-2.48,2.33,inactive,IGFL3 (GeneID 388555),3
2.48,20.4,15.2,inactive,TUBD1 (GeneID 51174),1
-0.237,1.3,4.72,inactive,TUBD1 (GeneID 51174),2
-0.725,-2.14,2.98,inactive,TUBD1 (GeneID 51174),3
-0.299,0.863,3.96,inactive,RNF212 (GeneID 285498),1
0.769,8.38,6.29,inactive,RNF212 (GeneID 285498),2
-0.785,-2.56,2.49,inactive,RNF212 (GeneID 285498),3
-0.288,0.944,3.4,inactive,MIR1-1HG (GeneID 128826),1
-0.698,-1.94,1.88,inactive,MIR1-1HG (GeneID 128826),2
-1.18,-5.36,2.15,inactive,MIR1-1HG (GeneID 128826),3
2.35,19.5,11.3,inactive,APOL5 (GeneID 80831),1
-0.376,0.324,4.91,inactive,APOL5 (GeneID 80831),2
1.33,12.3,10.6,inactive,APOL5 (GeneID 80831),3
2.18,18.3,13.2,inactive,THADA (GeneID 63892),1
-0.0756,2.44,5.21,inactive,THADA (GeneID 63892),2
1.72,15,9.69,inactive,THADA (GeneID 63892),3
-0.55,-0.903,2.89,inactive,SERPINE1 (GeneID 5054),1
7.37,54.8,25.9,active,SERPINE1 (GeneID 5054),2
-0.14,1.98,5.56,inactive,SERPINE1 (GeneID 5054),3
0.744,8.2,6.54,inactive,PLPPR1 (GeneID 54886),1
1.31,12.2,9.42,inactive,PLPPR1 (GeneID 54886),2
-0.202,1.54,3.7,inactive,PLPPR1 (GeneID 54886),3
0.279,4.93,5.53,inactive,ANKRD20A5P (GeneID 440482),1
1.45,13.2,8.42,inactive,ANKRD20A5P (GeneID 440482),2
-0.573,-1.07,2.76,inactive,ANKRD20A5P (GeneID 440482),3
1.17,11.2,8.01,inactive,LINC01625 (GeneID 645434),1
0.85,8.95,6.54,inactive,LINC01625 (GeneID 645434),2
-0.412,0.0716,3.07,inactive,LINC01625 (GeneID 645434),3
0.381,5.65,7.04,inactive,TNIP2 (GeneID 79155),1
-0.873,-3.17,3.19,inactive,TNIP2 (GeneID 79155),2
-0.515,-0.654,2.52,inactive,TNIP2 (GeneID 79155),3
